In article PMC7661466:
Results are given in words; binding and its absence hold for the method and conditions named. In cells and extracts the contact can be indirect. Some entries that bind do so weakly or less than the wild type. For part of these data: Where a sequence is shown, tags or fusion partners need not be part of it.

Sequences of proteins named here, by UniProt entry; tags and fusion partners are left off.
UniProt Q9Y572: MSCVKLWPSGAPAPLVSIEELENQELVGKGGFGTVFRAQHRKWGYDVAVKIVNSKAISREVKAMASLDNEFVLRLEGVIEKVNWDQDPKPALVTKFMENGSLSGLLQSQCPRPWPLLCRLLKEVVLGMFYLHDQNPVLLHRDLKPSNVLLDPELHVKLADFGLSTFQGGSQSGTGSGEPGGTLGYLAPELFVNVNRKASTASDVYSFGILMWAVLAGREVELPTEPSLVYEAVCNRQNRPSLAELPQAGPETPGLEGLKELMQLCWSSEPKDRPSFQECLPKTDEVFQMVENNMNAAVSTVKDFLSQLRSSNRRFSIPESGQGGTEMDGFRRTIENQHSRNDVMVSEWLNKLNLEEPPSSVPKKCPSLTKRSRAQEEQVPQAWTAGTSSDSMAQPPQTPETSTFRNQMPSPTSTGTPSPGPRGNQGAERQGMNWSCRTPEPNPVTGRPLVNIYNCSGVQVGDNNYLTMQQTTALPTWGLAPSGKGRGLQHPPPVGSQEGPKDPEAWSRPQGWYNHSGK
UniProt Q13546: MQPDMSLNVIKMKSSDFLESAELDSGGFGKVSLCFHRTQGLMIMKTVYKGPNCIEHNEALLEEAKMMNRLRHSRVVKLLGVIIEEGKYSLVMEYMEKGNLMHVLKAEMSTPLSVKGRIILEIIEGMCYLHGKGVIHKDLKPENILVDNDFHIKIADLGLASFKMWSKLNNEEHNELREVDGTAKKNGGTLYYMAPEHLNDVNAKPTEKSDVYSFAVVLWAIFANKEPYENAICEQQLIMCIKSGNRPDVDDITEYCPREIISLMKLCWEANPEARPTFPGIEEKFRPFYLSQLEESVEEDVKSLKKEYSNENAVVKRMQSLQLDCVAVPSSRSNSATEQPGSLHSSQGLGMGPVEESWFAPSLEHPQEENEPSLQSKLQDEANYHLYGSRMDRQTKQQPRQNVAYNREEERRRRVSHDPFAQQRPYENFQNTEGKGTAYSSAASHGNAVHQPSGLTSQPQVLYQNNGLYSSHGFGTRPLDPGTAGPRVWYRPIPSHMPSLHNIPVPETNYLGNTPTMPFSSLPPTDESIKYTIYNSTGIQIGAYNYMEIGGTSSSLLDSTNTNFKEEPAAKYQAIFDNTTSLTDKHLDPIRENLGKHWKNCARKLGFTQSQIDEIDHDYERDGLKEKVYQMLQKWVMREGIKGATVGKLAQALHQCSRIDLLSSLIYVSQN

T1: Myc-tagged ICP6 (HSV-1), wild type (herpes simplex virus type 1 (HSV-1)) (UniProt P08543)
T1 sequence: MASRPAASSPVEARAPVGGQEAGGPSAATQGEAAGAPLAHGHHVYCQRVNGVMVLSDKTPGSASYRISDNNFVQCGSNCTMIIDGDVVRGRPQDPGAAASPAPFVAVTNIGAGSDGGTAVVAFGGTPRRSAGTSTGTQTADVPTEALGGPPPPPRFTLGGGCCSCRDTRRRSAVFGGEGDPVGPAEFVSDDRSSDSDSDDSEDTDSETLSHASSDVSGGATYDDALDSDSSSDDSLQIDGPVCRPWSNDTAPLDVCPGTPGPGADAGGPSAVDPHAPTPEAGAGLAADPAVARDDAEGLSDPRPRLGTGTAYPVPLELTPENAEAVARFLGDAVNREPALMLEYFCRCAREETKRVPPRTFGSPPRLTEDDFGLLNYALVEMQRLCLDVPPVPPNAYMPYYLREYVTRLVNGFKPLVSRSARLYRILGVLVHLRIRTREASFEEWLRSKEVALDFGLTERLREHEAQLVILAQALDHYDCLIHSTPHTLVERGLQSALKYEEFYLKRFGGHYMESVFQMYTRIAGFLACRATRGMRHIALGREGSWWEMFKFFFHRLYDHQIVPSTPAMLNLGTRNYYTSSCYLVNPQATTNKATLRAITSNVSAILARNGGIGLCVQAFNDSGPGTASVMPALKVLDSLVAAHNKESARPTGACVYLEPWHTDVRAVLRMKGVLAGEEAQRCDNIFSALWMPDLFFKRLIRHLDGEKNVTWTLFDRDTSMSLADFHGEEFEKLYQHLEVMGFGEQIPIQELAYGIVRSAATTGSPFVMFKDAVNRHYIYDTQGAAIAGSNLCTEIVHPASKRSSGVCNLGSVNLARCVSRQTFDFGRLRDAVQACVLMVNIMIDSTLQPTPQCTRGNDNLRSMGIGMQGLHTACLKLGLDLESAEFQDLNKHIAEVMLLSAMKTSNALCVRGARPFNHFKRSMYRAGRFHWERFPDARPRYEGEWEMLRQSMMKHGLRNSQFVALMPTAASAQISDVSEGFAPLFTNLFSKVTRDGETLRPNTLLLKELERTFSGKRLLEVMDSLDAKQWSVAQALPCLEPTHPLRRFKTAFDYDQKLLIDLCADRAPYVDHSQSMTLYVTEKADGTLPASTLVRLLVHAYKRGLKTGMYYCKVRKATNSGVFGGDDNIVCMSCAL

B1: ICP6 (HSV-1), wild type, expressed by lentivirus in HeLa-RIP3 cells (protein, UniProt P08543 1-1137)
chain: T1 sequence

Legend:
[1] = target: T1, Myc-tagged ICP6 (HSV-1), wild type (herpes simplex virus type 1 (HSV-1)); assay: co-IP
[2] = target: Flag-tagged RIP3 (receptor-interacting protein kinase 3) (human) (UniProt Q9Y572); assay: co-IP

Row | Molecule | binding [1] | binding [2]
1 | receptor-interacting protein kinase 1 (RIP1) (from UniProt Q13546 1-671) | binds | binds
2 | B1 | – | binds
